{"source": "patent EP0402852A1", "about": "(priority 1989, dated 1990)", "experiment": "general procedure: solution-phase peptide synthesis; BOP/NMM (Examples 1-3); DCC/HOBT (Example 6)", "conditions": "for step yield: late stage modification step; for conjugation yield: conjugation step", "note": "“And” between values parts separate entries of the source, which are not always exact repeats. Equal values may be shown once. Some peptides are written in HELM: one residue between dots, names in brackets for other building blocks, links after the first $."}
{"substance": "PEPTIDE1{[4-BCEA-Bz].T.Q.W.A.V.G.H.L.M.[am]}$$$$V2.0", "values": [{"measurement": "step yield", "setting": "run 1", "result": "71% and 36%"}]}
{"substance": "PEPTIDE1{[ClCH2-Nle-Suc].T.Q.W.A.V.G.L.M.[am]}$$$$V2.0", "values": [{"measurement": "conjugation yield", "result": 40, "unit": "%"}]}
{"substance": "PEPTIDE1{[4-BCEA-Bz].T.Q.W.A.V.G.L.M.[am]}$$$$V2.0", "values": [{"measurement": "conjugation yield", "setting": "run 1", "result": "90% and 50%"}]}
{"substance": "PEPTIDE1{[ClEtN(NO)CO].T.Q.W.A.V.G.L.[Nle].[am]}$$$$V2.0", "values": [{"measurement": "step yield", "result": 73, "unit": "%"}]}
{"substance": "PEPTIDE1{[4-BCEA-Bz].T.Q.W.A.V.G.L.[Nle].[am]}$$$$V2.0", "values": [{"measurement": "conjugation yield", "result": 50, "unit": "%"}]}
